{
  "source": "patent US20190038756A1",
  "about": "“COMPOSITIONS INCLUDING BENZENESULFONAMIDE-CONTAINING NON-STEROIDAL ANTI-INFLAMMATORY DRUGS, SILK FIBROIN, AND A GELLING AGENT AND USES THEREOF” (Cocoon Biotech Inc., priority 2016, published 2019)",
  "test": "In vitro release study of NSAIDs from silk-PEG hydrogels (UV detection)",
  "format": "physicochemical",
  "procedure": "Lyophilized silk was dissolved with ultrapure water to obtain concentrations of 1.3, 3.6, 7.0, 13.0, and 23.0% (w/v). Polyethylene glycol (PEG) with molecular weights of 300 and 400 Da (PEG300 and PEG400) was diluted with ultrapure water when necessary. Celecoxib (a benzenesulfonamide-containing NSAID) and other NSAIDs which are not benzenesulfonamide-containing NSAIDs (tenoxicam, meloxicam, and lomoxicam) were dissolved with 80% (v/v) PEG400 solution to obtain low concentration solutions (<40 mg/mL) or with 100% (v/v) PEG300 to obtain high concentration solutions (>100 mg/mL). Diclofenac sodium salt (another NSAID that is not a benzenesulfonamide-containing NSAID) was dissolved in the aqueous silk solution.\nThe PEG or PEG/drug solution was mixed with silk solution by pipetting up and down gently and aliquoted into a 2-mL Eppendorf tube. Each tube was left at 37° C. to gel overnight (Wang et al., Acta Biomater. 12:51-61, 2015).\nTo the 2-mL Eppendorf tube containing fibroin-drug hydrogel, 1.95 mL of release medium was added. The release medium contained 1× phosphate buffer, pH 7.4, 0.1% (v/v) Tween-80, and 0.02% (w/v) sodium azide. The samples were incubated at 37° C. with gentle shaking. The release medium was changed after 24 hours and then approximately once every 3 days. The release medium was subjected to UV detection using a UV transparent bottom plate (Corning) at the respective wavelengths listed in Table 8. Control release medium was measured under the same condition for background subtraction. A calibration curve was generated for each drug by dissolving a known amount of each drug in the release medium, and making dilutions with the release medium.",
  "note": "At least one compound was matched to its structure with a doubt left.",
  "data": [
    {"smiles": "Cc1cnc(NC(=O)C2=C(O)c3ccccc3S(=O)(=O)N2C)s1", "note": "[Meloxicam, meloxicam]", "values": [
      {"measurement": "time within which drug was completely released", "setting": "from all the tested silk-fibroin hydrogels (FIGS. 2-4), 37° C., phosphate buffer pH 7.4, 0.1% Tween-80", "result": "≤ 2", "unit": "days"},
      {"measurement": "release of free drug without encapsulation in silk-fibroin hydrogels", "setting": "no hydrogel", "result": "released within one day"},
      {"measurement": "sustained release (e.g., greater than one week) using a silk-fibroin hydrogel delivery platform", "setting": "silk-fibroin hydrogel", "result": "could not be achieved"}
    ]}
  ]
}
